In paper PMC7819943, “Rice protein-binding microarrays: a tool to detect cis-acting elements near promoter regions in rice” one finds binding signal data, which are given here for 42 sequences.

Sequences of proteins named here, by UniProt entry; tags and fusion partners are left off.
UniProt Q0JBA9, entry or part of it: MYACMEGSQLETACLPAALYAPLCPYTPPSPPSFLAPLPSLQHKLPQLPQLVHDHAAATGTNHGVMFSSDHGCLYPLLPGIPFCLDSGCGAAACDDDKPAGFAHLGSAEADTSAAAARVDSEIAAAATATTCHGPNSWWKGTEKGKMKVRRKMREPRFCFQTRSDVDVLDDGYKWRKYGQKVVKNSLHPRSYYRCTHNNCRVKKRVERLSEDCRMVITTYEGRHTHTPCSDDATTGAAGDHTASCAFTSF

The list shows a part of the results.

This test concerns the target OsWRKY34 (Oryza sativa, UniProt Q0JBA9 1-250). As to the kind of experiment: protein-binding microarray (RPBM); PBS, 2% BSA, 51.3 ng/ul salmon testes DNA, 50 uM zinc acetate, 200 nM TF, 25 C, 1 h; high values mean tight binding. Conditions: protein: recombinant; tags: N-terminal polyhistidine and DsRed monomer fusion (pET32a); label: CyDye5-dUTP incorporated in the synthesized complementary strand; 3' TTTTT single-stranded linker to array surface; dsDNA, one strand shown. The essentials: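 Binding signal here means per-feature fluorescence intensity in arbitrary units. The values were read on an Axon 4000B scanner after a custom Agilent array, double-stranded by primer extension with Cy5-dUTP, was incubated with 200 nM protein at 25 °C for 1 h in PBS with 2% BSA, salmon testes DNA and 50 µM zinc acetate, then washed. The proteins were transcription factors with an N-terminal polyhistidine tag and DsRed, expressed in E. coli BL21-CodonPlus and purified on Ni–NTA.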
For “TGCTGTGTATAGACGTGTCCCTTTTGTTGGTACACGCCCACGGAGTCACCTAGTGCAG”, the binding signal was 8040 fluorescence intensity (a.u.).

For the sequence “CTTGCGCTGTCACCTACCGCCTCGGCTCCGAGAGAGAGGACGGAGTCACCTAGTGCAG”, the binding signal is 8330 fluorescence intensity (a.u.).

Regarding “GCCCAACTCGCGCCTCCTTCTCCGGTCGTCCTCCCTCCGCCGGAGTCACCTAGTGCAG”, the binding signal was 13100 fluorescence intensity (a.u.).

For “TTCTGGTTTTTGAGTGAATTTAAGTTTGCATTTATTTTTTCGGAGTCACCTAGTGCAG”, the binding signal is 8630 fluorescence intensity (a.u.).

With “ACACCCATGGAACTTGTCGCCTCGAGGAGGGGAGGGGAGCCGGAGTCACCTAGTGCAG”, the binding signal was 11800 fluorescence intensity (a.u.).

With “ACGCCAGCAAGCCACTAGGGCGCATCCTCTTTTGCTATCACGGAGTCACCTAGTGCAG”, the binding signal is 8420 fluorescence intensity (a.u.).

“TTGGTACTATGGTTGCATTCGTTCCGAGCACTCATTTTATCGGAGTCACCTAGTGCAG”: the binding signal was 9580 fluorescence intensity (a.u.).

For “GTGTTCATTGCTAGTTGCATTGTGGTTTTCTAGTTAATTACGGAGTCACCTAGTGCAG”, the binding signal is 9000 fluorescence intensity (a.u.).

Take “TATGTCACGTATAAAATTCTAATGCTAGCTAACTACCATACGGAGTCACCTAGTGCAG”: the binding signal is 8340 fluorescence intensity (a.u.).

Consider “TCCTTCCTCCGATTCACACACACTCCTCGCCGTCTTGTTTCGGAGTCACCTAGTGCAG”, for which the binding signal is 8030 fluorescence intensity (a.u.).

Consider “CTACAATACGGTCAGCATATCTACCACCCGTCCGATATTCCGGAGTCACCTAGTGCAG”, for which the binding signal is 9030 fluorescence intensity (a.u.).

For the sequence “CACTCCACTATATATACCCTCGCTCGCGCGCGCGCACTCCCGGAGTCACCTAGTGCAG”, the binding signal is 8380 fluorescence intensity (a.u.).

“TACTTTTAGGCCTCTCTTCCTTCGTACTCTTGAATGGGCACGGAGTCACCTAGTGCAG”: the binding signal was 10100 fluorescence intensity (a.u.).

With “ACAAGGGGTCGGTCTATCATGCTGATGCGGTCGACCGCTCCGGAGTCACCTAGTGCAG”, the binding signal was 10900 fluorescence intensity (a.u.).

In the case of “GCCACCTTTTGTTCCGCAACCGCAATGATTTCTTCTTCTTCGGAGTCACCTAGTGCAG”, the binding signal is 14800 fluorescence intensity (a.u.).

“ACTACTGTATACGTGTATACTCTACTATCCATCATCGCCGCGGAGTCACCTAGTGCAG”: the binding signal was 9240 fluorescence intensity (a.u.).

Regarding “TTAACCACAGTGCCGTTCTCTAGCCACCATCTCAGCAGCACGGAGTCACCTAGTGCAG”, the binding signal was 8220 fluorescence intensity (a.u.).

For the sequence “CCTTTTTGGCACCGCATTACTTTCCTATTTTAGTAAATTTCGGAGTCACCTAGTGCAG”, the binding signal is 9590 fluorescence intensity (a.u.).

As for “GCGATGTTCTGCCTCCTCGTGTACATGTGCTTCGGCGACCCGGAGTCACCTAGTGCAG”, the binding signal is 9400 fluorescence intensity (a.u.).

For “AGCTCGCACCACACTATCTTTCTTACCCACCCCGACAATTCGGAGTCACCTAGTGCAG”, the binding signal was 11000 fluorescence intensity (a.u.).

As for “TGCTAGCTAACCAAGACTCCGACTCTTCTATTAGTACCTACGGAGTCACCTAGTGCAG”, the binding signal was 9060 fluorescence intensity (a.u.).

Take “TCCTCCTACCCAAACACCATCTATCCATTATGCACCCATCCGGAGTCACCTAGTGCAG”: the binding signal is 8650 fluorescence intensity (a.u.).

“AATTCCACATGTCAAATCCGATTATTATTTGCATTACCTTCGGAGTCACCTAGTGCAG”: the binding signal is 10600 fluorescence intensity (a.u.).

Take “GTTCTCTCTGCATCTCTTCTTCGTTCGATTTCTTGGTCCACGGAGTCACCTAGTGCAG”: the binding signal is 10300 fluorescence intensity (a.u.).

Turning to “CATCCAAATAGGTTCTTTTAGTTCAATTTTGGGGCAGTTTCGGAGTCACCTAGTGCAG”, the binding signal was 9920 fluorescence intensity (a.u.).

“AGATTTCCCCTTGGTTCGTTGTTCTGTTCTATCCCCTTCTCGGAGTCACCTAGTGCAG”: the binding signal was 8460 fluorescence intensity (a.u.).

For the sequence “GACCCCTGTTTTCGCTTTTCTTTGGGCCCTCCTCTCTCCTCGGAGTCACCTAGTGCAG”, the binding signal was 9770 fluorescence intensity (a.u.).

Turning to “TGTGTGTATGCGTTTATAGGAGTAACTGTGTGTGCGTTTACGGAGTCACCTAGTGCAG”, the binding signal is 8150 fluorescence intensity (a.u.).

Consider “GGCGTTAACTTGCTGATGTGTGTTCTTTTTCATTGATTCCCGGAGTCACCTAGTGCAG”, for which the binding signal is 8330 fluorescence intensity (a.u.).

“TCTGCCTTAAAATCTCAATAATCTCTCTCTGTGTGTGTCTCGGAGTCACCTAGTGCAG”: the binding signal was 8440 fluorescence intensity (a.u.).

In the case of “ACCCGCCATCAATTCACTCTCTCACTCGTCACTCTCCTATCGGAGTCACCTAGTGCAG”, the binding signal is 13200 fluorescence intensity (a.u.).

In the case of “TCTCTCTCTGTGCATGGTGGGGAGGTGCGGCAGTGGTGGTCGGAGTCACCTAGTGCAG”, the binding signal was 10400 fluorescence intensity (a.u.).

For “ACTGCTAATTCGTCTATTTTGTACCACTTTCTCTATTTTTCGGAGTCACCTAGTGCAG”, the binding signal is 16500 fluorescence intensity (a.u.).

“AAAAAAGAATTTGGTGGGTGAGAGTTGACTGTGAGCTTCTCGGAGTCACCTAGTGCAG”: the binding signal is 8460 fluorescence intensity (a.u.).

As for “ACACAAGAGTAAGCACATTATTACATGCCCTTTAATTTCTCGGAGTCACCTAGTGCAG”, the binding signal was 9430 fluorescence intensity (a.u.).

With “CAGGCGGAATCTGTAATTTGTTTGTGTTATTAGTCTATGTCGGAGTCACCTAGTGCAG”, the binding signal was 10800 fluorescence intensity (a.u.).

For “TCCATCAGTATCACGCGTTCGTCCTACGATTTCGTCATGACGGAGTCACCTAGTGCAG”, the binding signal was 10200 fluorescence intensity (a.u.).

In the case of “CCTCCTCTCGTCGCTTCCGCCTTGGCTCGTCTTGTGCCTACGGAGTCACCTAGTGCAG”, the binding signal was 8570 fluorescence intensity (a.u.).

Regarding “CCGCTCGTCTTCCACTGCAGCCCAGCTCCCGTTCTTTCAACGGAGTCACCTAGTGCAG”, the binding signal was 16500 fluorescence intensity (a.u.).

For “AGGATTTTGAGTTTTTGTTTGCATTTTTTGACCACTCGTCCGGAGTCACCTAGTGCAG”, the binding signal was 9820 fluorescence intensity (a.u.).

For the sequence “AAAACCATCCTAATCCCTGGCATTTGACACAGCCAAACAGCGGAGTCACCTAGTGCAG”, the binding signal was 8930 fluorescence intensity (a.u.).

As for “AGCCTGAACGTATGGTAGAGGTGACACGACACGATCAACACGGAGTCACCTAGTGCAG”, the binding signal was 8270 fluorescence intensity (a.u.).
